From the supplement of paper PMC10849652
Some of the results follow.

By UniProt entry, the sequences of proteins in these tests, tags left out. Where a name states a change or a piece, a line headed by the entry shows the natural chain unless it says otherwise.
UniProt Q92834: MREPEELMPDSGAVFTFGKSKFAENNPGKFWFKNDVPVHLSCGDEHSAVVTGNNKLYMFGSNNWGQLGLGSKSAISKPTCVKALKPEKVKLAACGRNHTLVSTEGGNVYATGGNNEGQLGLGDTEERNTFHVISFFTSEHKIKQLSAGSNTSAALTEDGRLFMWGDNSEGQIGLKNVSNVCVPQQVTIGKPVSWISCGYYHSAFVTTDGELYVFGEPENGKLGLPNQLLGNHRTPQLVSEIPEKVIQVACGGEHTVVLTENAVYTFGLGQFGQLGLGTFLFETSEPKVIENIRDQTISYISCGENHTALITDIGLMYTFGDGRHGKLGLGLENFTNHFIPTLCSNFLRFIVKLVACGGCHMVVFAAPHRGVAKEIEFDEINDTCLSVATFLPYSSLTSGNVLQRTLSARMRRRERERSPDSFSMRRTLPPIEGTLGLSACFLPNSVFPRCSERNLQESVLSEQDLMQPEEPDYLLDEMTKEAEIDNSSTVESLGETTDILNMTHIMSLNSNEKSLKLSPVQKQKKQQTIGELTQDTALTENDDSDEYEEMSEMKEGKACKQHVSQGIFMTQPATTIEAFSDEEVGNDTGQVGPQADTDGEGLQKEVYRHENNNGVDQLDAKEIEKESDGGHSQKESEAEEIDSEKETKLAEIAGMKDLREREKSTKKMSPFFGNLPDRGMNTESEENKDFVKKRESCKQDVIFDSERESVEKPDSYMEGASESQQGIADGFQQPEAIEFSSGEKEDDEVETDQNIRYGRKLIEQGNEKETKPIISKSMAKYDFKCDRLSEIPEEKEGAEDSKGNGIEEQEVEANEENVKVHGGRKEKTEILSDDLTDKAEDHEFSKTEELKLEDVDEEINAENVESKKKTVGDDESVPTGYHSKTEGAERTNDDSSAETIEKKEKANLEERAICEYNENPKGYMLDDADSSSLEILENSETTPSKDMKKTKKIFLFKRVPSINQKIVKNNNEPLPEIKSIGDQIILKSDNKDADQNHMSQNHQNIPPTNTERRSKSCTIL
UniProt O94955, whole entry, looked up: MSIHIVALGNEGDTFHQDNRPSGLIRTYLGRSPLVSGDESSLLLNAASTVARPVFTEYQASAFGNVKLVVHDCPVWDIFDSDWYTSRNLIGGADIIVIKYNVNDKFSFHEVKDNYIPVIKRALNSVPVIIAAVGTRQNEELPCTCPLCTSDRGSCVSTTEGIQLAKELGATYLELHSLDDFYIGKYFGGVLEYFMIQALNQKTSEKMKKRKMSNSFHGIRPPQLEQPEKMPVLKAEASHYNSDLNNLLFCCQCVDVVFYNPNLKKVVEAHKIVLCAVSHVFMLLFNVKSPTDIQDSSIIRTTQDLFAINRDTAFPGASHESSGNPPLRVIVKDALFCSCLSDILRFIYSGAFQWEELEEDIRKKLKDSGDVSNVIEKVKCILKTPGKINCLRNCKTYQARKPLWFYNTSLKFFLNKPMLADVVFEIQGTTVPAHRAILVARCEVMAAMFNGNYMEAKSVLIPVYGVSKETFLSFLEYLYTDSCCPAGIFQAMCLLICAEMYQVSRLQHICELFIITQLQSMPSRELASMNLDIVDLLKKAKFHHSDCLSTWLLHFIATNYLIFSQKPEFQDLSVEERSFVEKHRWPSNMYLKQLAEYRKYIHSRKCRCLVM
UniProt Q96GF1: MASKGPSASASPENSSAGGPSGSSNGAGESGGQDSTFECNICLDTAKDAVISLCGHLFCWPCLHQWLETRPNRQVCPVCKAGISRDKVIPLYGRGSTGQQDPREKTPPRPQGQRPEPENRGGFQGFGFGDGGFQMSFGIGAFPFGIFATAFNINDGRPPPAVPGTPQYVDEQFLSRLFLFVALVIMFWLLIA
UniProt Q9Y225: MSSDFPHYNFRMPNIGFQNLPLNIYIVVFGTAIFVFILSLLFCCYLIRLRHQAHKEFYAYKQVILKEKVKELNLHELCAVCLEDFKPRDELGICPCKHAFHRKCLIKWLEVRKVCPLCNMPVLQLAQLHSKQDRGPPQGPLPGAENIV
UniProt Q96E14: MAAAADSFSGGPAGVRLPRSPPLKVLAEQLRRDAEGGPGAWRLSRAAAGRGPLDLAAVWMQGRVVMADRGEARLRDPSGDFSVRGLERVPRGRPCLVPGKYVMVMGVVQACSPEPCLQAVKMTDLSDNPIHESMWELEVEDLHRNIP
UniProt Q8NCN4: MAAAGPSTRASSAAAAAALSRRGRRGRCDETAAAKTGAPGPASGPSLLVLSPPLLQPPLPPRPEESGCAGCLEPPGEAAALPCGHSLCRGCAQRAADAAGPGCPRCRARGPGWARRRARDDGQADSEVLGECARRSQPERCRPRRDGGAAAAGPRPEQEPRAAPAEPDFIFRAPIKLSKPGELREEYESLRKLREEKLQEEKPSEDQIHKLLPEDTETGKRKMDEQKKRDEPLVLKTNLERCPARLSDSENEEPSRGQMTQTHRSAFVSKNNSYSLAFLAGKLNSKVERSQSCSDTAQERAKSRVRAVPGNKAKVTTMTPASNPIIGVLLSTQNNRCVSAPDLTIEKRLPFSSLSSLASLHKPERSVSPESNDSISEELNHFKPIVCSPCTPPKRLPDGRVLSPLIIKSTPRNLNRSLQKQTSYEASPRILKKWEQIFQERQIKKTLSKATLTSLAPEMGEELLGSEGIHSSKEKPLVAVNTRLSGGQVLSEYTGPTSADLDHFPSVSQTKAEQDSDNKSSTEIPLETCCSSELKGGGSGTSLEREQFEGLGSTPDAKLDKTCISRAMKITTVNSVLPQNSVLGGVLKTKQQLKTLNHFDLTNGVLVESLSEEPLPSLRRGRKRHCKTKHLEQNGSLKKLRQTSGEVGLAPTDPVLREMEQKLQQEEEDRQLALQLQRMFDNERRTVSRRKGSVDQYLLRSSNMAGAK
UniProt P60602: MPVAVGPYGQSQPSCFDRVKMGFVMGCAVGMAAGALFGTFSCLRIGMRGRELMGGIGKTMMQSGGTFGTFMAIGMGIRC
UniProt P34096: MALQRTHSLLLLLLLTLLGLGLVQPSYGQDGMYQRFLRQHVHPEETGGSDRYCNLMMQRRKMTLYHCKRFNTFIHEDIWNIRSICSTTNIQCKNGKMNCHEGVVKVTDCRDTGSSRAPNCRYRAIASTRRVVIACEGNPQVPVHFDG
UniProt Q96G75, whole entry, looked up: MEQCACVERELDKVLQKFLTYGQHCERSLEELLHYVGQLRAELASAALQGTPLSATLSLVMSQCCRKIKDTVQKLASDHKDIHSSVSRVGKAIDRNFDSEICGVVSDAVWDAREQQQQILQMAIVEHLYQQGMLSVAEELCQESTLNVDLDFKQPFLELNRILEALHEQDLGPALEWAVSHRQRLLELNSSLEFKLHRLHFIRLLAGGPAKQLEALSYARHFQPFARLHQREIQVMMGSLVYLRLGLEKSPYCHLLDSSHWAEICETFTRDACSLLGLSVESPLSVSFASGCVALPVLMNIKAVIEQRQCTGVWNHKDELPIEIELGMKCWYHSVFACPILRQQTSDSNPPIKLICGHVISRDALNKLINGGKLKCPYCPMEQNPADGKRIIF
UniProt P78317: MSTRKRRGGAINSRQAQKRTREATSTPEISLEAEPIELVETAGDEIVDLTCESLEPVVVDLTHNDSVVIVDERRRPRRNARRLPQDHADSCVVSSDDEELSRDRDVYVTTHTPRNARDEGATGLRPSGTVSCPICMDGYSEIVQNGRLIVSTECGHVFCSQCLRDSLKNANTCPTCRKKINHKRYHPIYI
UniProt Q8N5U6: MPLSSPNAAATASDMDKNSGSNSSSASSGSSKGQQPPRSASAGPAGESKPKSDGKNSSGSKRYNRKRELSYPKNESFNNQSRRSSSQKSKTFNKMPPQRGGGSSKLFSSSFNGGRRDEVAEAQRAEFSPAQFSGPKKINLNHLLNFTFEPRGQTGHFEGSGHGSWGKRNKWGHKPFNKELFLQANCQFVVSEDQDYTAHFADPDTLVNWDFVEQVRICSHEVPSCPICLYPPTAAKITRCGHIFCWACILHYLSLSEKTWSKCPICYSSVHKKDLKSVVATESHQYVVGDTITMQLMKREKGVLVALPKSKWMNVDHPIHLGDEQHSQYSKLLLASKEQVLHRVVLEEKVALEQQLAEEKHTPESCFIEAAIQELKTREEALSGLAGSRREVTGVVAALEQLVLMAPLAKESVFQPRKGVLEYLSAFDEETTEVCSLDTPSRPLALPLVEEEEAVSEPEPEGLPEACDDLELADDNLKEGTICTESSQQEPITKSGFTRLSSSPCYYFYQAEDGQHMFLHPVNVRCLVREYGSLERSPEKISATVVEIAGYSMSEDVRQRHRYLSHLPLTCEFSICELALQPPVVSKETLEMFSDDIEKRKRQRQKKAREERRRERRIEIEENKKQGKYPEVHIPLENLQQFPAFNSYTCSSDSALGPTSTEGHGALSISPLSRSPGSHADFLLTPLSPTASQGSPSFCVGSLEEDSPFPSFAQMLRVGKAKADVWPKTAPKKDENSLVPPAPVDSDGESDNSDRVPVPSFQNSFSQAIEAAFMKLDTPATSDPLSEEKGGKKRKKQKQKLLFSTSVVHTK
UniProt Q9H4P4: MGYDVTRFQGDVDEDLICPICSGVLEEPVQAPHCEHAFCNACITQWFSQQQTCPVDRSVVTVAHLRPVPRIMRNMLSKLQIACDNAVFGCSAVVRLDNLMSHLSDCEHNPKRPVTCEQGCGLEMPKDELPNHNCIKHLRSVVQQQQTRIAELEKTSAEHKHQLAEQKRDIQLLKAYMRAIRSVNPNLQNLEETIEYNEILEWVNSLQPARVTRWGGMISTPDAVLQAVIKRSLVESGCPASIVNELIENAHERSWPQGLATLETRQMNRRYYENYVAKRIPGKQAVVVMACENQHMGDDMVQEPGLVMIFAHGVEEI
UniProt Q99942: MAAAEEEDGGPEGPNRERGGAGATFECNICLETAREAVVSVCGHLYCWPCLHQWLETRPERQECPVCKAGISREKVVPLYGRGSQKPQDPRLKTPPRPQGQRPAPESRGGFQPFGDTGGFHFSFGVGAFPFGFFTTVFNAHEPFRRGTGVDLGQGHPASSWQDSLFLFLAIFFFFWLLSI
UniProt Q9NVW2: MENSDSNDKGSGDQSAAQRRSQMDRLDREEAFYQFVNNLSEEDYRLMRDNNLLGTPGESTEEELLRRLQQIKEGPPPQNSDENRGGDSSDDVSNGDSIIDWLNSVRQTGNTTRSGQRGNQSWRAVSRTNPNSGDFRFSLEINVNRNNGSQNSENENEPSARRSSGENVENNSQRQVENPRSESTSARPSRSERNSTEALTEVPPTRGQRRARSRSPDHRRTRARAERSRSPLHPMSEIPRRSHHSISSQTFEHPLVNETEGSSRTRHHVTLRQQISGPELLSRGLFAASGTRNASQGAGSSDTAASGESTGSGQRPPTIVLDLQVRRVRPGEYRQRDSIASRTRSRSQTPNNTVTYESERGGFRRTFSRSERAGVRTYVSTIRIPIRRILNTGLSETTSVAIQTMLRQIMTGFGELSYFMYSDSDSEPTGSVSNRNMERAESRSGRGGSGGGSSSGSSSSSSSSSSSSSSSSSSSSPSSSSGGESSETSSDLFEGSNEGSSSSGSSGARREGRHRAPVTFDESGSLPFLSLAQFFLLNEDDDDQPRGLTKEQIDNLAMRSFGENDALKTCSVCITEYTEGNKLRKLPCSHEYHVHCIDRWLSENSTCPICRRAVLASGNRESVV
UniProt Q9HAU8: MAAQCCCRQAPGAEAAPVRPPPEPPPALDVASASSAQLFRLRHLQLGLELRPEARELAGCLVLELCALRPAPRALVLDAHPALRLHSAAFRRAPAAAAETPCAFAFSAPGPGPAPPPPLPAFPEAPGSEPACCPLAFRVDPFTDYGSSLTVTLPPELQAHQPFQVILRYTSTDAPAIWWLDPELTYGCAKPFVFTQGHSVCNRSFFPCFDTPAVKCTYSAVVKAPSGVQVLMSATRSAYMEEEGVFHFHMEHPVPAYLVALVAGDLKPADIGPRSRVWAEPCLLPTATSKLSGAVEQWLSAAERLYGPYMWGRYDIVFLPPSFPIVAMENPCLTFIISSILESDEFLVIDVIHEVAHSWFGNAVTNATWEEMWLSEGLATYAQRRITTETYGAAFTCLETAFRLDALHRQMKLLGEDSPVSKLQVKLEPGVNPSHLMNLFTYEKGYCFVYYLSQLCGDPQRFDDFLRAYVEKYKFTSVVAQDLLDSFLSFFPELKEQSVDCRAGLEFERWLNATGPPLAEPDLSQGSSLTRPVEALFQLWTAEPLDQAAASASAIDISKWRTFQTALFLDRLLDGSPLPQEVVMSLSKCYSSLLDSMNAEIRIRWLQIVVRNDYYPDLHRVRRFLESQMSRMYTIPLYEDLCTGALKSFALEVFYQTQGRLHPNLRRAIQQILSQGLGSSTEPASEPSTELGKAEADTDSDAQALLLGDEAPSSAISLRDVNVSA
UniProt Q8WVD3: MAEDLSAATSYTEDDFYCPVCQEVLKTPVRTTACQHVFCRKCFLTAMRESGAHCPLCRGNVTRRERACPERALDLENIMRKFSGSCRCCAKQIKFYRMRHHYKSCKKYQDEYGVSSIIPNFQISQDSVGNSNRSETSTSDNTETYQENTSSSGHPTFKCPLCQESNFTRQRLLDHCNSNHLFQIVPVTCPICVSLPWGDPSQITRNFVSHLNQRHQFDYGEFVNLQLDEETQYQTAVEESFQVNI

Assays:
Experiment in all cases: log2 fold change, soluble protein after heating vs DMSO (PISA); higher = thermal stabilisation; K562 lysate, 10 uM; active = over 0.2 and 3.5 SD of the protein, either way, in both replicates (recomputed)
pictilisib = compound: CS(=O)(=O)N1CCN(Cc2cc3nc(-c4cccc5[nH]ncc45)nc(N4CCOCC4)c3s2)CC1 [pictilisib]
Method in brief: (§1)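 A 30 min treatment with 10 μM compound was applied to crude K562 extract at 1 mg/mL protein in PBS pH 7.4 with 1 mM MgCl2. Heating for 3 min spanned 48°C-58°C, after which aliquots were pooled, adjusted to 0.5% NP-40 at 4°C and spun at 21,000xg for 90 min. TMTpro 16plex LC-MS/MS of the supernatant, with channel sums equalised, gave values recorded as log-two fold change in thermal stability against solvent controls, from duplicates.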

crizotinib = compound: C[C@@H](Oc1cc(-c2cnn(C3CCNCC3)c2)cnc1N)c1c(Cl)ccc(F)c1Cl [crizotinib]
Method in brief: as §1

doramapimod = compound: Cc1ccc(-n2nc(C(C)(C)C)cc2NC(=O)Nc2ccc(OCCN3CCOCC3)c3ccccc23)cc1 [doramapimod]
Method in brief: as §1

bafetinib = compound: Cc1ccc(NC(=O)c2ccc(CN3CC[C@H](N(C)C)C3)c(C(F)(F)F)c2)cc1Nc1nccc(-c2cncnc2)n1 [bafetinib]
Method in brief: as §1

lapatinib = compound: CS(=O)(=O)CCNCc1ccc(-c2ccc3ncnc(Nc4ccc(OCc5cccc(F)c5)c(Cl)c4)c3c2)o1 [lapatinib]
Method in brief: as §1

[1] = compound: C[C@H](C1=CC=C(C=C1)C(=O)NC2=C3C=CNC3=NC=C2)N
Method in brief: as §1

duvelisib = compound: C[C@H](Nc1ncnc2nc[nH]c12)c1cc2cccc(Cl)c2c(=O)n1-c1ccccc1 [duvelisib]
Method in brief: as §1

gandotinib = compound: Cc1cc(Nc2cc(CN3CCOCC3)c3nc(C)c(Cc4ccc(Cl)cc4F)n3n2)n[nH]1 [gandotinib]
Method in brief: as §1

[2] = compound: Cc1cccc(CC(=O)N2CCc3c2ccc(-c2cn(C)c4ncnc(N)c24)c3F)n1
Method in brief: as §1

tozasertib = compound: Cc1cc(Nc2cc(N3CCN(C)CC3)nc(Sc3ccc(NC(=O)C4CC4)cc3)n2)n[nH]1 [tozasertib]
Method in brief: as §1

Target	log2 fold change (pictilisib)	log2 fold change (crizotinib)	log2 fold change (doramapimod)	log2 fold change (bafetinib)	log2 fold change (lapatinib)	log2 fold change [1]	log2 fold change (duvelisib)	log2 fold change (gandotinib)	log2 fold change [2]	log2 fold change (tozasertib)
RPGR (UniProt Q92834)	inactive: -0.051	inactive: 0.061	inactive: 0.036	inactive: -0.106						
RNPC3 (UniProt Q96LT9)		inactive: -0.043	inactive: -0.115		inactive: -0.018	inactive: 0.036	inactive: 0.072	inactive: 0.016	inactive: -0.115	
RHOBTB3 (UniProt O94955)										inactive: -0.161
RNF130 (UniProt Q86XS8)	inactive: -0.054	inactive: -0.296	inactive: 0.25	inactive: 0.029		inactive: 0.284	inactive: -0.093	inactive: 0.016	inactive: -0.006	
RNF185 (UniProt Q96GF1)	inactive: -0.021			inactive: -0.088	inactive: 0.02	inactive: 0.06		inactive: -0.068	inactive: 0	
RNF24 isoform 2 (UniProt Q9Y225)	inactive: -0.089	inactive: -0.074	inactive: -0.093	inactive: -0.477		inactive: -0.173		inactive: 0.117	inactive: 0.028	
RPL22L1 (UniProt Q6P5R6)	inactive: -0.066			inactive: -0.186			inactive: 0.024			inactive: -1.08
RPL10, A0A087WV22	inactive: 0.928	inactive: 0.031	inactive: 0.049	inactive: 0.531			inactive: 0.13			
RIOX1 (UniProt Q9H6W3)		inactive: 0.007	inactive: -0.028		inactive: -0.035	inactive: 0.083	inactive: 0.008	inactive: -0.026	inactive: -0.121	inactive: -0.026
RHOU (UniProt Q7L0Q8)		inactive: -0.002	inactive: 0.038		inactive: -0.05	active: -0.323	inactive: 0.024	inactive: -0.031	inactive: 0.056	inactive: 0.113
RMI2 (UniProt Q96E14)		inactive: 0.005	inactive: -0.012				inactive: 0.013			inactive: -0.068
RHOQ (UniProt P17081)										inactive: 0.09
RNF139 (UniProt Q8WU17)		inactive: -0.171	inactive: -0.16			inactive: -0.241		inactive: 0.049	inactive: 0.023	
RNF169 (UniProt Q8NCN4)	inactive: -0.14	inactive: -0.005	inactive: -0.003	inactive: 0.155			inactive: 0.061			
RLF (UniProt Q13129)		inactive: -0.062	inactive: -0.057		inactive: -0.024	inactive: 0.01	inactive: 0.163	inactive: -0.009	inactive: 0.021	
RNF2 (UniProt Q99496)		inactive: 0.087	inactive: -0.032			active: 0.484	inactive: 0.031	inactive: -0.299	active: -0.442	inactive: 0.021
RNASEH1 (UniProt O60930)						inactive: -0.014		inactive: -0.174	inactive: 0.274	
ROMO1 (UniProt P60602)		inactive: -0.061	inactive: 0.003		inactive: 0.061		inactive: -0.097			inactive: 0.094

Target	log2 fold change (pictilisib)	log2 fold change (crizotinib)	log2 fold change (doramapimod)	log2 fold change (bafetinib)	log2 fold change (lapatinib)	log2 fold change [1]	log2 fold change (duvelisib)	log2 fold change (gandotinib)	log2 fold change [2]	log2 fold change (tozasertib)
RNF111 isoform 3 (UniProt Q6ZNA4)		inactive: -0.11	inactive: 0.036							
RNASE4 (UniProt P34096)		inactive: 0.002	inactive: 0		inactive: 0.016		inactive: -0.031			inactive: 0.157
RMND5B (UniProt Q96G75)						inactive: 0.077		inactive: -0.037	inactive: -0.14	
ROBO2 isoform 3 (UniProt Q9HCK4)		inactive: -0.039	inactive: 0.019		inactive: 0.02					
RNF4 (UniProt P78317)	inactive: -0.037	inactive: -0.133	inactive: 0.189	inactive: -0.005		inactive: -0.037		inactive: 0.083	inactive: 0.037	inactive: -0.192
RP9 (UniProt Q8TA86)		inactive: 0.04	inactive: 0.008		inactive: 0.001	inactive: 0.147	inactive: 0.07	inactive: -0.051	inactive: -0.071	
RNF10 isoform 2 (UniProt Q8N5U6)		inactive: 0.049	inactive: -0.094		inactive: -0.319		inactive: 0.025			inactive: -0.229
RNF115 (UniProt Q9Y4L5)		inactive: -0.018	inactive: -0.039			inactive: -0.164		inactive: 0.059	inactive: 0.041	
RHOXF2B (UniProt P0C7M4)					inactive: 0.059		inactive: 0.055			
RPAIN isoform 8 (UniProt Q86UA6)	inactive: -0.102			inactive: 0.013		inactive: 0.038		inactive: -0.306	inactive: -0.132	inactive: 0.024
RNF8 (UniProt O76064)	inactive: 0.031	inactive: -0.021	inactive: 0.025	inactive: -0.017		inactive: -0.007	inactive: -0.043	inactive: 0.055	inactive: 0.002	inactive: 0.206
RNF41 (UniProt Q9H4P4)		inactive: -0.01	inactive: 0.045			inactive: -0.243	inactive: -0.025	inactive: -0.201	inactive: -0.177	
RPL15, A0A2R8Y738	inactive: -0.153			inactive: -0.137	inactive: -0.166					
RNF5 (UniProt Q99942)	inactive: -0.062	inactive: -0.072	inactive: -0.032	inactive: -0.003		inactive: -0.005	inactive: 0.019	inactive: -0.151	inactive: 0.061	inactive: 0.155
RLIM (UniProt Q9NVW2)	inactive: -0.053	inactive: -0.323	inactive: -0.044	inactive: -0.193						
RNPEPL1 (UniProt Q9HAU8)		inactive: 0.062	inactive: -0.051		inactive: 0.06	inactive: -0.006	inactive: 0.044	inactive: -0.08	inactive: 0.073	
RNF138 (UniProt Q8WVD3)	inactive: 0.042	inactive: -0.094	inactive: 0.037	inactive: 0.016		inactive: -0.044	inactive: -0.058	inactive: -0.055	inactive: 0.057	inactive: -0.016
RPL32 (UniProt D3YTI8)					inactive: 0.002		inactive: 0.039			

Looked up one by one from above:
Target	log2 fold change (pictilisib)	log2 fold change (crizotinib)	log2 fold change (doramapimod)	log2 fold change (bafetinib)	log2 fold change (lapatinib)	log2 fold change [1]	log2 fold change (duvelisib)	log2 fold change (gandotinib)	log2 fold change [2]	log2 fold change (tozasertib)
RNF4 (UniProt P78317)	inactive: -0.037	inactive: -0.133	inactive: 0.189	inactive: -0.005		inactive: -0.037		inactive: 0.083	inactive: 0.037	inactive: -0.192
RLIM (UniProt Q9NVW2)	inactive: -0.053	inactive: -0.323	inactive: -0.044	inactive: -0.193						
RMND5B (UniProt Q96G75)						inactive: 0.077		inactive: -0.037	inactive: -0.14	
